Residue numbers refer to the chain shown, from its start. These are yes or no findings as the source states them, for the method shown. In cells and extracts the contact can be indirect. Some binding calls cover weakened binding; strength is not graded here. For some assays here: Sequences can lack the tags named with a protein.
Assays:
[1] = target: T1, PEAK2 WT (N-terminal HA-tagged and C-terminal FLAG-tagged) (UniProt Q86YV5); test: co-IP; association of PEAK2 and its mutants with CAMK2D (Supplementary Fig. 4); cells and details not shown; also with PEAK1 knockdown
T1 sequence: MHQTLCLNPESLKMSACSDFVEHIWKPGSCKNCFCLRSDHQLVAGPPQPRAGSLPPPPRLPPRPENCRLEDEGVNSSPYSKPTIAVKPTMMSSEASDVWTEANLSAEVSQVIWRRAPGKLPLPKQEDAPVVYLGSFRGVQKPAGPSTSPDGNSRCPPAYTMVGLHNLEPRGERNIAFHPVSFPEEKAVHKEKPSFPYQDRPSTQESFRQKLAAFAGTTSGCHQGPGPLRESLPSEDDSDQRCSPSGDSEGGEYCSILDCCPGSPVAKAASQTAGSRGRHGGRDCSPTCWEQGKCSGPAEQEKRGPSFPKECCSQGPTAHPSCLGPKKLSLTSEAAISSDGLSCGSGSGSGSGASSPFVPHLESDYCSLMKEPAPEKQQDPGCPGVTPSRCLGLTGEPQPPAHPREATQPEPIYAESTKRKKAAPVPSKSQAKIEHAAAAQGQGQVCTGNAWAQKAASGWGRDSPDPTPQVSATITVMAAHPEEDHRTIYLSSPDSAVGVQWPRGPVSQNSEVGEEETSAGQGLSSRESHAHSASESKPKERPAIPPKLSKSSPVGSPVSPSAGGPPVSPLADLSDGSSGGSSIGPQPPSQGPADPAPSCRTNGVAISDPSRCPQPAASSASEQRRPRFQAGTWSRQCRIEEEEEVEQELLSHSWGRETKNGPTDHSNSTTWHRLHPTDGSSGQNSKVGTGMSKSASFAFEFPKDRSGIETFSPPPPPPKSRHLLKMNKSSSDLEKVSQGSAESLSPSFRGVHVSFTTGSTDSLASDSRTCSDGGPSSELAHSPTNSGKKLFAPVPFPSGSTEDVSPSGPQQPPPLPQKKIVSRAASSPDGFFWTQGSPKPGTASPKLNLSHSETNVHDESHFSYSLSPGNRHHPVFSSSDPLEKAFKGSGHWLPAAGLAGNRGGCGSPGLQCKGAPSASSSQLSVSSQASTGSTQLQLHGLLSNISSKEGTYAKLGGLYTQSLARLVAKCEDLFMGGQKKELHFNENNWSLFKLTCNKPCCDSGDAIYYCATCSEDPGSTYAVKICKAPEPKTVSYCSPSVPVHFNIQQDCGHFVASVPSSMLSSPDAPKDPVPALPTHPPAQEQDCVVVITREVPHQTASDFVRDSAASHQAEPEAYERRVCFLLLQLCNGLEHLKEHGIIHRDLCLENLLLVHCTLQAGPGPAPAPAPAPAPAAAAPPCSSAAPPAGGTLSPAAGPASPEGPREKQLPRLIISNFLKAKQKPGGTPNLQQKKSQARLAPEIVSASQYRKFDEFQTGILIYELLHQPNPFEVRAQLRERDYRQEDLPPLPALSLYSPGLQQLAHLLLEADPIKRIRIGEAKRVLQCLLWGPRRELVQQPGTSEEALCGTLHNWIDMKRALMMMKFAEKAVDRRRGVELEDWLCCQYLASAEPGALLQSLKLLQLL

Amino acid sequences for entries named in this document (tags omitted).
UniProt Q13557: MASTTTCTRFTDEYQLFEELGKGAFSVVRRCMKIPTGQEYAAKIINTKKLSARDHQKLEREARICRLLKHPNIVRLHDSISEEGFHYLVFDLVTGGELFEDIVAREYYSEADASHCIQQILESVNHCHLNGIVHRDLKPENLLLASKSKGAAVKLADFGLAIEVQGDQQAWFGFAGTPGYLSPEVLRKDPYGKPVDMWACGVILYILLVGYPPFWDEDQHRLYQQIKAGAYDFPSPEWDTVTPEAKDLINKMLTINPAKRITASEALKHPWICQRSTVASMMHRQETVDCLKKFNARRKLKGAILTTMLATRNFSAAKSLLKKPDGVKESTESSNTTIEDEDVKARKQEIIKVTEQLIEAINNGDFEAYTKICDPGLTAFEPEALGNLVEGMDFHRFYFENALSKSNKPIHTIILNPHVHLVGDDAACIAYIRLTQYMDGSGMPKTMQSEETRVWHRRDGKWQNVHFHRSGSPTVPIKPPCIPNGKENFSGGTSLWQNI

PEAK2 L966A = target: T2, PEAK2 L966A (UniProt Q86YV5); test: as above
T2 sequence: T1 sequence with L966A

binding [1]: binds
binding (PEAK2 L966A): binds
Substance: CAMK2D (partner of PEAK2 in Supplementary Fig. 4) (from UniProt Q13557 1-499) (enzyme)

From PMC11845518
